Laboratory results as given in the supplement of paper PMC4683952.
The list shows a part of the results. Rule as the data show it: active = 2 or more and inactive = the rest. Repeats in this data set agree poorly, so a single value says little.

test system: Lgr5 (MarsCy1-Lgr5-EGFP, U2OS); test: cell-surface Lgr5 expression (SCi1 fluorescence, background-subtracted) relative to WT DMSO (fold of DMSO control); higher = more Lgr5 at the plasma membrane; details: U2OS MarsCy1-Lgr5-EGFP stable; treatment time: overnight; library: ActiProbe-5K (TimTec); 25 µM

SMILES	cell-surface Lgr5 expression
N#CC1=C(N2CCOCC2)c2cc3c(n2C1=N)CCCC3	inactive: 1.04
NC1=NNC(=O)/C1=C1/CCCN1	inactive: 0.879
CC(=O)c1c(NC2CCCCC2)oc(C)cc1=O	inactive: 1.09
CC1=C(c2nnn[nH]2)C(=O)OC1(C)C	inactive: 0.975
O=C(Nn1cnnc1)c1ccco1	inactive: 1.36
O=C(NNC(=S)NC1CCCCC1)c1n[nH]cc1[N+](=O)[O-]	inactive: 1.11
O=C1N(O)C2(C=CCCC2)/C(=N/O)C12CCCCC2 (centres undefined)	inactive: 1.1
O=C(N1CCNCC1)C12CC3CC(CC(C3)C1)C2	inactive: 1.34
CC(=O)Nc1cc(=O)[nH]c(C)n1	inactive: 1.31
O=C1NCS(=O)(=O)c2ccccc21	inactive: 0.992
O=C1NN(c2cccc(Br)c2)C(=O)/C1=C1/C(=O)Nc2ccccc21	inactive: 0.999
Nc1cc(N)cc(Oc2cc(N)cc(N)c2)c1	inactive: 1.09
N#Cc1c(N)nc2c(c1-c1ccc(Br)s1)CCCCCC2	inactive: 0.806
N#CCS/C(SCC(=O)c1ccc2c(c1)OCO2)=C(/C#N)C(=O)c1ccc2c(c1)OCO2	active: 2.98
Sc1nnc(-c2ccc(Cl)cc2)o1	inactive: 1.13
Cc1nccn1CCCN1C(=O)OC2(CCCCC2)C1(C)O (centres undefined)	inactive: 1.11
Cn1cc(Cn2ccc(N)n2)cn1	inactive: 1.08
CC1CCc2c(sc3nc(-c4cccs4)oc(=O)c23)C1 (centres undefined)	inactive: 1.05
Cc1ccc(/C=N/NC(=O)c2cc(C)oc2C)o1	inactive: 1.03
C=CCn1c(-c2ccccc2)n[nH]c1=S	inactive: 1
CC(=O)c1c(C)n(O)c2ccc(Cl)cc2c1=O	inactive: 1.26
O=c1[nH]c2c(c3c1c(=O)oc1ccccc13)CCCC2	inactive: 1.41
CCOC(=O)C1(c2csc(N)n2)COC(=O)C1 (centres undefined)	inactive: 1.3

Quoted from the listing.
Entry of `N#CCS/C(SCC(=O)c1ccc2c(c1)OCO2)=C(/C#N)C(=O)c1ccc2c(c1)OCO2` under cell-surface Lgr5 expression: active: 2.98
Entry of `CC1=C(c2nnn[nH]2)C(=O)OC1(C)C` under cell-surface Lgr5 expression: inactive: 0.975
Entry of `N#CC1=C(N2CCOCC2)c2cc3c(n2C1=N)CCCC3` under cell-surface Lgr5 expression: inactive: 1.04
Entry of `Cc1ccc(/C=N/NC(=O)c2cc(C)oc2C)o1` under cell-surface Lgr5 expression: inactive: 1.03

(more compounds)

SMILES	cell-surface Lgr5 expression
CC(C)(C)SCCNS(=O)(=O)c1ccc2c(c1)OCCO2	inactive: 1.07
O=C(CN1CCN(CC(=O)Nc2nccs2)CC1)Nc1nccs1	inactive: 1.12
O=C1Nc2ccccc2/C1=N/N1C(=O)CNC1=O	inactive: 1.12
O=C(CCCCC(=O)NNC(=O)c1cccs1)NNC(=O)c1cccs1	inactive: 1.11
Cc1cc(=O)c2c(=O)oc3ccccc3c2o1	inactive: 1.15
CC1(C)Cc2c(c(N3CCOCC3)nc3sc4c(NN)ncnc4c23)CO1	inactive: 1.51
O=C(c1[nH]nc([N+](=O)[O-])c1Br)N1CCSCC1	inactive: 1.28
COc1cc(-c2nnc(Nc3ccc4c(c3)OCO4)o2)cc(OC)c1OC	inactive: 1.15
Cc1nc2c(o1)NC(N)=C(C#N)C2c1cccs1 (centres undefined)	inactive: 0.97
CCC(C(=O)O)N1C(=O)NC2C1N(C)C(=O)N2C (centres undefined)	inactive: 1.32
COc1coc(C(=O)O)c1OC	inactive: 1.18
COn1c2c(c3c4nonc4ccc31)CCCC2	inactive: 0.613
CCCCOC(=O)CC1NCCNC1=O (centres undefined)	inactive: 1.14
O=C1C(=O)N(CN2CC=CCC2)c2ccccc21	inactive: 0.9
CCn1c(C)cc(C=O)c1C	inactive: 1.17
O=[N+]([O-])c1cnn(-c2cnc3c([N+](=O)[O-])cnn3c2)c1	inactive: 1
CC1(C)CC(O)CC(C)(C)N1CCO	inactive: 1.25
COc1cc(-n2nnn([C@H]3CC(=O)[C@@H]4OC[C@H]3O4)c2=S)c(OC)cc1Cl	inactive: 1.31
Cc1nc2sc3c(=O)[nH]nnc3c2c(C)c1Cl	inactive: 1.1
N/C(=N\O)c1ccc(Br)cc1	inactive: 1.14
O=C(O)c1ccnn1C(F)F	inactive: 1.09
OC1(c2cn3ccccc3n2)CCCCC1	inactive: 0.968
Brc1ccccc1C1OCC2(CO1)COC(c1ccccc1Br)OC2 (centres undefined)	inactive: 1.26

SMILES	cell-surface Lgr5 expression
c1cn(CCC2CCNCC2)cn1	inactive: 1.13
Cc1ccc(-c2nnc(S)n2/N=C\c2ccc(C(C)(C)C)cc2)cc1	inactive: 0.798
O=S(=O)(O)c1cc(O)c2c(O)cc(S(=O)(=O)O)cc2c1	inactive: 1.12
O=S1(=O)OC(c2ccc(O)c(Cl)c2)(c2ccc(O)c(Cl)c2)c2ccccc21	inactive: 1.01
Cc1ccc(C(C2=C(O)CC(C)(C)CC2=O)C2C(=O)CC(C)(C)CC2=O)s1 (centres undefined)	inactive: 0.908
O=C1CCC([N+](=O)[O-])C(c2cccs2)N1 (centres undefined)	inactive: 1.21
O=[N+]([O-])c1sc2ccccc2c1N1CCOCC1	inactive: 1.01
COc1ccc(C(/N=C/N(C)C)c2nccc3cc(OC)c(OC)cc23)cc1OC (centres undefined)	inactive: 1.33
O=[N+]([O-])c1ccc2c(c1)C1C=CCC1C(C1CC=CCC1)N2 (centres undefined)	inactive: 0.651
Sc1nnc(-c2ccco2)n1/N=C/c1ccco1	inactive: 1.02
O=C(CCC(=O)NNC(=O)C1CC1)NNC(=O)C1CC1	inactive: 1.01
S=c1n(CN2CCOCC2)nnn1C1CCCCC1	inactive: 1.44
Cc1n[nH]c(C)c1C12CC3CC(CC(C3)C1)C2	inactive: 1.2
CC(C)c1ccc(C2=NN(c3ccccc3)C3(CC2)SC(c2ccccc2)=NN3c2ccccc2)cc1 (centres undefined)	inactive: 1.11
O=[N+]([O-])c1cc2nccnc2cc1Cl	inactive: 1.34
Nc1nc2c(s1)CCCC2	inactive: 1.16
CC(C)(C)c1ccc(-c2nc(-c3ccc(Br)o3)no2)cc1	inactive: 1.2
Clc1ccc2c(c1)C1OCCC1C(c1ccco1)N2 (centres undefined)	inactive: 1.05
C=C(C)C[C@H]1CC=C[C@H](CC(=C)C)N1	inactive: 1.2
O=[N+]([O-])c1ccc(C2Nc3cc(Br)ccc3C3C=CCC32)cc1 (centres undefined)	inactive: 0.245
COCc1n[nH]c2c1C(c1ccsc1)C(C#N)=C(N)O2 (centres undefined)	inactive: 1.16
Brc1ccc(C2C3=C(Nc4ncnn42)c2ccccc2OC3c2ccccc2)cc1 (centres undefined)	inactive: 1.1
O=C1OC(c2ccccc2F)=N/C1=C\c1cccc2ccccc12	inactive: 1.19
